Measurements: patent publication US9512090B2, “Tetrazolinone compound and use thereof” (Sumitomo Chemical Company, Limited, priority 2013, dated 2016)
Some of these results come from one statement about several compounds together. At least one compound was matched to its structure with a doubt left.

Legend:
Type in all cases: in vivo
[1] = system: cucumber target leaf spot fungus (Corynespora cassiicola); experiment: Test Example 9: cucumber target leaf spot control by foliar spray; conditions: 200 ppm spray on cucumber (SAGAMI HANJIRO); inoculated after one day; 7 days under high humidity
[2] = system: cucumber powdery mildew fungus (Sphaerotheca fuliginea); experiment: Test Example 6 and Comparative Test Example: cucumber powdery mildew control by foliar spray; conditions: 500 ppm spray on cucumber (SAGAMI HANJIRO); 8 days after inoculation
[3] = system: cucumber anthracnose fungus (Colletotrichum lagenarium); experiment: Test Example 10: cucumber anthracnose control by foliar spray; conditions: 200 ppm spray on cucumber (SAGAMI HANJIRO); inoculated after one day; assessed after 1 + 6 days
[4] = system: kidney bean stem rot fungus (Sclerotinia sclerotiorum); experiment: Test Example 4: kidney bean stem rot control by foliar spray; conditions: 500 ppm spray on kidney bean (NAGAUZURA SAITOU); four days after inoculation
[5] = system: barley scald fungus (Rhynchosporium secalis); experiment: Test Example 8: barley scald control by foliar spray; conditions: 200 ppm spray on barley (NISHINOHOSHI); inoculated after 2 days; assessed after 3 + 7 days
[6] = system: wheat leaf blotch fungus (Septoria tritici); experiment: Test Example 5: wheat leaf blotch control by foliar spray; conditions: 500 ppm spray on wheat (APOGEE); inoculated after 4 days; assessed after 3 days + 14 to 18 days
[7] = system: soybean rust fungus (Phakopsora pachyrhizi); experiment: Test Example 7: soybean rust control by foliar spray; conditions: 200 ppm spray on soybean (KUROSENGOKU); inoculated after 2 days; assessed after 3 + 14 days

Measured: area of lesion spots on the treated plant relative to that on an untreated plant

Cc1cc(-c2cccc(Cl)c2)ccc1OCc1c(C)cccc1-n1nnn(C)c1=O [compound 2]
≤ 30%: [1] | [2] | [3] | [4] | [5] | [6]

COc1cccc(-n2nnn(C)c2=O)c1COc1ccc(-c2ccc(Cl)cc2)cc1C [compound 8]
≤ 30%: [1] | [2] | [3] | [4] | [5] | [6]

Cc1cc(-c2ccccc2F)c(C)cc1OCc1c(C)cccc1-n1nnn(C)c1=O [compound 143]
≤ 30%: [1] | [2] | [4] | [6]

COc1ccc(-c2ccc(OCc3c(OC)cccc3-n3nnn(C)c3=O)c(C)c2)cc1 [compound 17]
≤ 30%: [1] | [2] | [3] | [4] | [5]

CCc1cccc(-n2nnn(C)c2=O)c1COc1cc(C)c(-c2ccccc2OC)cc1C [compound 138]
≤ 30%: [1] | [2] | [7] | [6]

Cc1ccc(OCc2c(C)cccc2-n2nnn(C)c2=O)cc1 [compound 95]
≤ 30%: [1] | [2] | [4]

Cc1cc(-c2ccccc2C)c(C)cc1OCc1c(C)cccc1-n1nnn(C)c1=O [compound 144]
≤ 30%: [1] | [2] | [4] | [6]

Cc1cc(OCc2ccccc2)ccc1OCc1c(C)cccc1-n1nnn(C)c1=O [compound 77]
≤ 30%: [1] | [2] | [3] | [4] | [5] | [6]

COc1cccc(-n2nnn(C)c2=O)c1COc1ccc(-c2ccccc2C(F)(F)F)cc1C [compound 12]
≤ 30%: [1] | [2] | [4] | [5] | [6]

Cc1cc(-c2cccc(Cl)c2)ccc1OCc1c(C2CC2)cccc1-n1nnn(C)c1=O [compound 26]
≤ 30%: [1] | [2] | [3] | [5] | [6]

Cc1cc(Oc2ccccc2)ccc1OCc1c(C2CC2)cccc1-n1nnn(C)c1=O [compound 67]
≤ 30%: [1] | [2] | [3] | [5] | [6]

Cc1cc(N(C)c2ccccc2)ccc1OCc1c(C)cccc1-n1nnn(C)c1=O [compound 78]
≤ 30%: [1] | [2] | [3] | [4] | [5] | [6]

COc1cccc(-n2nnn(C)c2=O)c1COc1cc(C)c(-c2ccccc2C#N)cc1C [compound 140]
≤ 30%: [1] | [2] | [4] | [5] | [6]

CCC=C(C)c1ccc(OCc2c(C)cccc2-n2nnn(C)c2=O)c(C)c1 [compound 105]
≤ 30%: [1] | [2] | [3] | [4] | [6]

Cc1cc(Oc2ccccn2)ccc1OCc1c(C)cccc1-n1nnn(C)c1=O [compound 75]
≤ 30%: [1] | [2] | [3] | [4] | [5] | [6]

Cc1cc(Oc2ccccc2)ccc1OCc1c(C)cccc1-n1nnn(C)c1=O [compound 62]
≤ 30%: [2] | [3] | [4] | [5] | [7] | [6]

C=C(C)c1ccc(OCc2c(OC)cccc2-n2nnn(C)c2=O)c(C)c1 [compound 103]
≤ 30%: [1] | [2] | [4] | [5] | [6]

COc1cccc(-n2nnn(C)c2=O)c1COc1ccc(-c2ccccc2C#N)cc1C [compound 21]
≤ 30%: [1] | [2] | [3] | [4] | [5] | [6]

COc1ccccc1-c1cc(C)c(OCc2c(OC)cccc2-n2nnn(C)c2=O)cc1C [compound 142]
≤ 30%: [1] | [2]

Cc1cccc(-n2nnn(C)c2=O)c1COc1ccc(C(F)(F)F)cc1 [compound 94]
≤ 30%: [1] | [2] | [4] | [5]

Cc1cc(-c2cccc(C)c2C)ccc1OCc1c(C)cccc1-n1nnn(C)c1=O [compound 3]
≤ 30%: [1] | [2] | [3] | [4] | [5]

COc1cccc(-n2nnn(C)c2=O)c1COc1ccc(C2=CCCCC2)cc1C [compound 104]
≤ 30%: [1] | [2] | [3] | [4] | [5] | [6]

Cc1ccc(Oc2ccc(OCc3c(C)cccc3-n3nnn(C)c3=O)c(C)c2)cc1 [compound 65]
≤ 30%: [1] | [2] | [3] | [4] | [5] | [6]

Cc1cc(-c2ccccc2C(F)(F)F)c(C)cc1OCc1c(C)cccc1-n1nnn(C)c1=O [compound 145]
≤ 30%: [1] | [2] | [6]
